Reference: the supplement of paper PMC12889115
Some of the results follow. Values are raw readings; no control value is given beside them.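 First-pass screen: polymyxin B was added at a level that permeabilizes the Salmonella outer membrane while sparing the inner membrane. DMSO wells, with and without polymyxin B, defined maximum growth. Because plates differed from one another, each plate's data were ranked separately and the compounds with the lowest OD600 were carried forward as hits.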

Tested on: Salmonella enterica serovar Typhimurium SL1344
Assay: bacterial growth OD600 after 18 h with compound and polymyxin B; higher = more bacterial growth (less inhibition)
Details: 50 µM, Mueller-Hinton broth

Row | SMILES | bacterial growth OD600 (polymyxin B 1 µg/mL) | bacterial growth OD600 (polymyxin B 0.75 µg/mL)
1 | CCN(C)C(=O)c1coc(COc2ccccc2)n1 | 0.952 | 
2 | O=C(c1cccnc1)N1CCC(Oc2ccccc2C(=O)N2CCCC(O)C2)CC1 (stereo unspecified) | 1.26 | 
3 | Cc1ccc(CC2(CCC(=O)N3CCCC3c3nc4ccccc4s3)CCC(=O)N2)cc1 (stereo unspecified) |  | 0.893
4 | O=C1CC(NCc2c[nH]cn2)CN1Cc1cccc2ccccc12 (stereo unspecified) | 0.871 | 
5 | CC(C)c1cc(C(=O)N2CCC(n3nccc3NC(=O)C(C)(C)C)CC2)on1 | 0.911 | 
6 | O=C(c1cc(COc2ccccc2)[nH]n1)N1CCN(C2CCCCC2)CC1 | 1.17 | 
7 | O=C(Cc1ccccc1)Nc1ccnn1C1CCN(Cc2cccc3nonc23)CC1 | 0.831 | 
8 | O=C(Nc1ccc(-c2nc3ccccc3[nH]2)cc1)C1CCCN(C2CCOCC2)C1 (stereo unspecified) | 0.999 | 
9 | COc1ccc(C(CC(=O)N(C)Cc2csc(C)n2)c2ccccc2)cc1 (stereo unspecified) | 0.628 | 
10 | CSCC(=O)N1CCCC(N2CCN(c3cccc(C(F)(F)F)c3)CC2)C1 (stereo unspecified) | 1.12 | 
11 | O=C(CN1CCOC1=O)N1CCCC(CCc2cccc(C(F)(F)F)c2)C1 (stereo unspecified) |  | 0.002
12 | C[C@H](NC(=O)c1cc(Cl)ccc1OC1CCN(C2CCCC2)CC1)C(N)=O | 1.25 | 
13 | O=C(NCC1(c2ccccc2)CCCC1)C1CC12CCN(C(=O)/C=C/c1ccccc1)CC2 (stereo unspecified) |  | 0.004
14 | CC(=O)NCCC(=O)N1CCCC(CCc2cccc(F)c2)C1 (stereo unspecified) |  | 0.948
15 | CC(C)(CNC(=O)c1cc(COc2ccc3c(c2)CCCC3)on1)N1CCOCC1 |  | 0.012
16 | O=C(NCc1cc2cc(Cl)ccc2[nH]1)C1CCC(=O)N(CCCN2CCOCC2)C1 (stereo unspecified) | 0.76 | 
17 | C=CCC(=O)N1CCc2[nH]nc(-c3ccc4c(c3)OCO4)c2C1 |  | 0.985
18 | COC(=O)c1cc(CNC(=O)C2CCC2)cc(NS(=O)(=O)c2cccc(C(F)(F)F)c2)c1 |  | 0.694
19 | COCC(C)NC(=O)c1cc(OC)ccc1OC1CCN(C2CCCC2)CC1 (stereo unspecified) | 1.21 | 
20 | O=CN1CCCN(c2nc3nonc3nc2N2CCCCCC2)CC1 | 1.12 | 
21 | COc1ccc(F)c(CN2CCCC(O)(CN3CCSCC3)C2=O)c1 (stereo unspecified) | 0.887 | 

A different layout for part of the listing above.
Row	SMILES	bacterial growth OD600 (polymyxin B 1 µg/mL)	bacterial growth OD600 (polymyxin B 0.75 µg/mL)
13	O=C(NCC1(c2ccccc2)CCCC1)C1CC12CCN(C(=O)/C=C/c1ccccc1)CC2 (stereo unspecified)		0.004
14	CC(=O)NCCC(=O)N1CCCC(CCc2cccc(F)c2)C1 (stereo unspecified)		0.948
